{
  "source": "paper PMC8664846",
  "about": "“Heterogeneous dissociation process of truncated RNAs by oligomerized Vasa helicase” (Communications Biology, 2021)",
  "target": "dN-Vasa (Vasa with the N-terminal disordered region deleted, K133-W601) (Bombyx mori) (UniProt O01378)",
  "assay": "single-molecule fluorescence intensity counting (TIRF microscopy); TMR-labelled Vasa adsorbed on poly-L-lysine-coated glass; number of molecules in a spot from the intensity of a single TMR; 30 mM HEPES pH 7.3, 150 mM potassium acetate, 5 mM magnesium acetate, 0.1% NP-40, 500 uM TCEP, oxygen scavengers; with 5 ug/ml yeast RNA further oligomerization; both purified",
  "note": "No constants are given. Whether binding was seen depends on the method and setting.",
  "data": [
    {"binder": "dN-Vasa (Vasa with the N-terminal disordered region deleted, K133-W601) (domain or fragment, UniProt O01378 133-601, TMR-labelled HaloTag ligand on the HaloTag) KPVTYVPPEPTNDETEIFSSTISSGINFDKFDHIAVKVSGENPPRPIESFETANLRKYVLDNVLKAGYRKPTPIQKNAIPIIMSGRDLMGCAQTGSGKTAAFLVPIINMLLQDPKDLISENGCAQPQVIIVSPTRELTLQIFNEARKFSYGSVLKVAVAYGGTAVRHQGDNIARGCHILVATPGRLHDFVERNRVSFGSVRFVVLDEADRMLDMGFMPSIEKMMLHPTMVETTKRQTLMFSATFPEDIQHLAGRFLNNYLFVAVGIVGGASTDVEQIFIEVTKYEKRNSLKQLIEENDGKRILVFVETKRNADFIAAMLSEQQLLTSSIHGDRMQREREEALQNFKSGKHCILVATAVAARGLDIKNVDIVVNYDLPKSIDEYVHRIGRTGRVGNRGKAVSFYDSDQDLALVADLSKILRQADQSVPDFLKGGGTATFKGNKYGGSDVRNFNNANTAVVDQGQEPEEEW", "values": [
      {"measurement": "binding", "value": "no binding"}
    ]}
  ]
}
